Laboratory results as given in US20230111996A1 (priority 2020, published 2023).

Assay: general procedure: solution-phase peptide synthesis

## 1-(3-(2,5-Dioxo-2,5-dihydro-1H-pyrrol-1-yl)propanamido)-N-(2-((2-(((S)-1-((2-(((S)-9-ethyl-5-fluoro-9-hydroxy-10,13-dioxo-2,3,9,10,13,15-hexahydro-1H,12H-benzo[de]pyrano[3′,4′:6,7]indolizino[1,2-b]quinolin-4-yl)amino)-2-oxoethyl)amino)-1-oxo phenylpropan-2-yl)amino)-2-oxoethyl)amino)-2-oxoethyl)-3,6,9,12,15,18,21,24-octaoxaheptacosan-27-amide
Conjugation step
  conjugation yield: 53%

## (S)-2-(2-(2-aminoacetamido)acetamido)-N-(2-(((S)-9-ethyl-5-fluoro-9-hydroxy-10,13-dioxo-2,3,9,10,13,15-hexahydro-1H,12H-benzo[de]pyrano[3′,4′:6,7]indolizino[1,2-b]quinolin-4-yl)amino)-2-oxoethyl)-3-phenylpropanamide
Coupling step
  step yield: 35%
